PubChem BioAssay AID493246, Drosophila RNAi Screening Center, 2011

Assay: 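Identify essential fly genes by loss of cell viability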 (primary screen)
Cells: Drosophila Kc and S2R+ cells
Reagent: long dsRNA against Drosophila genes
Measured: 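Raw, unnormalised count of remaining cells in each well; per-plate z-scores of cell number underlie the calls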
Reading the numbers: Kc cell number and S2R+ cell number: higher = more cells remaining
Call rule: 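Active when the per-plate z-score of cell number is 3 or more in the direction of fewer cells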
The deposit covers about 21,000 reagents; shown is an unselected part of those that have a named target and a result. In the full data, 429 (2%) got an active call. 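Values are raw and not normalised between plates; calls rest on per-plate z-scores that were not deposited.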 Not given: the amount of reagent, the time to read-out.

| gene knocked down | dsRNA | Kc cell number, rep 1 | Kc cell number, rep 2 | S2R+ cell number, rep 1 | S2R+ cell number, rep 2 | Outcome |
| --- | --- | --- | --- | --- | --- | --- |
| CG12522 (GeneID 39248) | DRSC09088 | 1.61e6 | 1.68e6 | 1.15e6 | 1.33e6 | inactive |
| CG32021 (retired record) (GeneID 317825) | DRSC17206 | 1.67e6 | 1.64e6 | 1.13e6 | 1.31e6 | inactive |
| CG4716 (GeneID 36471) | DRSC06884 | 1.40e6 | 1.48e6 | 1.17e6 | 1.18e6 | inactive |
| Vsx2 (GeneID 31469) | DRSC17397 | 1.47e6 | 1.53e6 | 9.84e5 | 1.14e6 | inactive |
| Vsx2 (GeneID 31469) | DRSC18087 | 1.53e6 | 1.49e6 | 8.93e5 | 9.90e5 | inactive |
| Vsx2 (GeneID 31469) | DRSC18088 | 1.35e6 | 1.54e6 | 1.00e6 | 1.16e6 | inactive |
| Vsx2 (GeneID 31469) | DRSC18089 | 1.19e6 | 1.39e6 | 5.18e5 | 6.46e5 | active |
| ftz-f1 (GeneID 40045) | DRSC11347 | 1.77e6 | 1.95e6 | 1.30e6 | 1.34e6 | inactive |
| Sid (GeneID 43390) | DRSC16588 | 1.47e6 | 1.46e6 | 1.04e6 | 1.12e6 | inactive |
| CG15142 (GeneID 35059) | DRSC02443 | 1.52e6 | 1.58e6 | 1.20e6 | 1.36e6 | inactive |
| Ir56c (GeneID 37251) | DRSC06544 | 1.47e6 | 1.61e6 | 1.20e6 | 1.26e6 | inactive |
| Pop1 (GeneID 31475) | DRSC17739 | 5.86e5 | – | 9.01e5 | – | inactive |
| ETHR (GeneID 42523) | DRSC15915 | 1.36e6 | 1.40e6 | 1.00e6 | 1.11e6 | inactive |
| CtIP (GeneID 40262) | DRSC11785 | 1.48e6 | 1.64e6 | 1.33e6 | 1.42e6 | inactive |
| CG5292 (GeneID 42079) | DRSC15763 | 1.13e6 | 1.19e6 | 1.17e6 | 1.32e6 | inactive |
| dac (GeneID 34982) | DRSC03518 | 1.73e6 | 1.70e6 | 1.32e6 | 1.57e6 | inactive |
| Rrp42 (GeneID 36766) | DRSC07161 | 1.46e6 | 1.52e6 | 1.10e6 | 1.18e6 | inactive |
| fred (GeneID 33613) | DRSC00349 | 1.70e6 | 1.56e6 | 1.24e6 | 1.64e6 | inactive |
| fred (GeneID 33613) | DRSC00599 | 1.49e6 | 1.54e6 | 1.07e6 | 1.20e6 | inactive |
| fred (GeneID 33613) | DRSC00601 | 1.63e6 | 1.58e6 | 1.18e6 | 1.34e6 | inactive |
| fred (GeneID 33613) | DRSC00602 | 1.69e6 | 1.43e6 | 1.18e6 | 1.35e6 | inactive |
| CG6726 (GeneID 42728) | DRSC16101 | 1.44e6 | 1.44e6 | 9.86e5 | 1.07e6 | inactive |
| CG13108 (GeneID 34240) | DRSC02206 | 1.58e6 | 1.68e6 | 1.10e6 | 1.23e6 | inactive |
| CG10300 (GeneID 42798) | DRSC14225 | 1.58e6 | 1.52e6 | 9.76e5 | 1.07e6 | inactive |

A few values from the list:
dac (GeneID 34982) [DRSC03518], S2R+ cell number, rep 2: 1.57e6
Entry for fred (GeneID 33613) [DRSC00599] in “S2R+ cell number, rep 2”: 1.20e6
Under “Kc cell number, rep 1”, CG5292 (GeneID 42079) [DRSC15763] is entered as 1.13e6
For “Outcome”, Sid (GeneID 43390) [DRSC16588] shows inactive
